Out of some 580,000 compounds screened, about 6,100 (1.1%) were called active. Inconclusive means that the source gave no clear call. Such entries were picked first, then a sample of the others. Calls come from the whole dose curve; as a rule, active = well fitted inhibition curve with a large enough effect; inconclusive = small, poorly fitted or top-dose-only effect, or another doubt; inactive = no such curve, though single readings can be large or run the other way. Where the call is inconclusive, the potency comes from a doubtful curve fit.
Target: Polyunsaturated fatty acid lipoxygenase ALOX12 (Homo sapiens) (UniProt P18054)
Experiment: Primary qHTS assay for inhibitors of human arachidonate 12S-lipoxygenase (ALOX12): Round 2
Settings: purified 12hLO, xylenol orange hydroperoxide absorbance; activity change, negative = inhibition: at 108 µM (top of the series) unless noted
How it was run: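 Purified human 12hLO (150 nM final) in 25 mM Hepes, 0.01% Triton X-100, pH 7.0 was preincubated 15 min at room temperature with compound. Then 40 uM arachidonic acid was added, 30 min. Hydroperoxide was read by Fe-XO absorbance ratio 573/405 nm.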
% is set by controls: 0 for no effect and ±100 for the full control effect; potency is the fitted concentration of half-maximal effect.

Protein sequences, listed by entry. Tags and fused reporters are not part of them. Lines headed by an entry give the natural chain unless they say otherwise; changes in a name come on top.
UniProt P18054: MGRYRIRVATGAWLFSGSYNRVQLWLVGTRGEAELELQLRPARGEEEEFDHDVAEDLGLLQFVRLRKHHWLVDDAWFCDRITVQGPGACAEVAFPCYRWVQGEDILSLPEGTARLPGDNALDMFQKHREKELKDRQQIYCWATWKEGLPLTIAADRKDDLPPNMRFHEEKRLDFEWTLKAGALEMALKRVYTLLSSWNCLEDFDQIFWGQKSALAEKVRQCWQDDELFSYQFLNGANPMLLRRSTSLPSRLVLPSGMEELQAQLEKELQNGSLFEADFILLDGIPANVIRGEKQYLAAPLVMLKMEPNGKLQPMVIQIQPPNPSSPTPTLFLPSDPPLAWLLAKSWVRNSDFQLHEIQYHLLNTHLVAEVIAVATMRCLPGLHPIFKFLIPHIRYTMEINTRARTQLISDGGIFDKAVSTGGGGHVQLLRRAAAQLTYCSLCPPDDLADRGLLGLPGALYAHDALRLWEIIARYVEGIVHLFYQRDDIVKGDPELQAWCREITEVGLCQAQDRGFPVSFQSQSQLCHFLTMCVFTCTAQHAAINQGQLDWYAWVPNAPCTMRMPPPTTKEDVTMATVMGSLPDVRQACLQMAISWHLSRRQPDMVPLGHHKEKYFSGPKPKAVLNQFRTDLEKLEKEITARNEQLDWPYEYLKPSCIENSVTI

| SMILES | activity change, negative = inhibition | Potency |
| --- | --- | --- |
| O=C(CNC(=S)N(Cc1ccccc1)Cc1ccccc1F)NCc1ccc(Cl)cc1 | inactive: -21.2% |  |
| O=C(NCc1ccc2c(c1)CCO2)Nc1cccc(C(F)(F)F)c1 |  | inconclusive: 112 µM [inhibitor, single point] |
| CN(C)CCN(C(=O)c1ccc2c(c1)CCCC2)c1nc2cc3c(cc2s1)OCCO3 |  | inconclusive: 35.5 µM [inhibitor, partial curve, poor fit] |
| Cc1cc(O)c(C(=O)Cc2csc(C)n2)c(O)c1 | inactive: -14.2% |  |
| CN(CCCNC(=O)c1cc2cc(F)ccc2[nH]1)Cc1ccccc1 |  | inconclusive: 50.1 µM [inhibitor, partial curve, poor fit] |
| Cc1ccc(C)c(-c2csc(Nc3ccc(S(N)(=O)=O)cc3)n2)c1 | inactive: -28.9% |  |
| CCOn1c(=O)c(=O)n(OCc2ccccc2)c2ccccc21 | inactive: 0% |  |
| N#Cc1cccc(CN2C[C@H](O)C[C@H]2c2nc(-c3ccc4c(c3)OCO4)no2)c1 |  | inconclusive: 39.8 µM [inhibitor, full curve, poor fit] |
| CCNc1nc(NCc2ccc(F)cc2)c2cnn(C)c2n1 |  | inconclusive: 31.6 µM [inhibitor, partial curve] |
| CCC(C)NC(=O)Nc1ccc2nc(N3CCOCC3)cc(C)c2c1 (centres undefined) |  | inconclusive: 126 µM [inhibitor, single point] |
| CC1CCN(S(=O)(=O)c2ccc3c(c2)CCN3)CC1 | inactive: -29% |  |
| COc1ccc(NS(=O)(=O)c2ccc(N/N=C/c3ccc(C)s3)c([N+](=O)[O-])c2)cc1 |  | inconclusive: 141 µM [inhibitor, single point] |
| Cc1cc(C)cc(N2C(=O)CC(Sc3ncn[nH]3)C2=O)c1 (centres undefined) |  | inconclusive: 56.2 µM [inhibitor, partial curve, poor fit] |
| CCNc1c(NC(=O)Nc2cc(Cl)ccc2C)c(=O)oc2ccccc12 |  | inconclusive: 44.7 µM [inhibitor, partial curve, poor fit] |
| OCc1ccc(CN2C[C@H](O)C[C@H]2c2nc(-c3ccccc3)no2)o1 |  | inconclusive: 44.7 µM [inhibitor, full curve] |
| CC(C)c1nc(SCC(=O)N2CCc3ccccc32)n[nH]1 |  | inconclusive: 89.1 µM [inhibitor, single point] |
| O=C(Nc1ccc(N2CCN(C(=O)c3ccccc3)CC2)c(Cl)c1)c1ccc(Br)o1 | inactive: -17.3% |  |
| O=c1[nH]cnc2[nH]ncc12 |  | inconclusive: 1.93 µM [inhibitor, partial curve] |
| COc1ccc(-c2nc3cnc(N4CCN(C)CC4)nc3n(-c3ccc(OC)cc3)c2=O)cc1 |  | inconclusive: 1.78 µM [inhibitor, partial curve, poor fit] |

Quoted at random: 2 compounds from above, in no set order.

| SMILES | activity change, negative = inhibition | Potency |
| --- | --- | --- |
| Cc1cc(C)cc(N2C(=O)CC(Sc3ncn[nH]3)C2=O)c1 (centres undefined) |  | inconclusive: 56.2 µM [inhibitor, partial curve, poor fit] |
| CCNc1nc(NCc2ccc(F)cc2)c2cnn(C)c2n1 |  | inconclusive: 31.6 µM [inhibitor, partial curve] |

Source: PubChem BioAssay AID1671190 (National Center for Advancing Translational Sciences (NCATS), 2021)
